From patent US12208159B2, “Compositions, methods and kits for treating a contact lens” (University of Houston System, priority 2016, dated 2025) come the findings set out here.

Molecules are shown by their SMILES.

The data set concerns human telomerase corneal epithelial cells (hTCEpi). It counts as cell-based. On the procedure: Telomerase modified human corneal epithelial cells were seeded into wells of a 96 well plate with […] KGM-2 medium (Lonza Ltd, Switzerland) and incubated at 37° C. until ˜80% confluence. […] Cells treated with 0.05% benzalkonium chloride (BAC) and without any treatment served as controls. The plate was incubated at 37° C. for 18 h, and cell viability was determined using a cell counting kit-8 assay. […] All lenses are taken out, and cell viability was determined using a cell counting kit-8 assay (Dojindo Molecular Technologies, Inc. Japan).
Consider `O=C(O)c1cn(C2CC2)c2cc(N3CCN(C(=O)C(F)(F)C(F)(F)C(F)(F)C(F)(F)F)CC3)c(F)cc2c1=O` [Compound 9], for which the “toxicity of loaded lenses compared to cells incubated with untreated lenses” value is listed as “no significant difference in toxicity”.
As for `O=C(O)c1cn(C2CC2)c2cc(N3CCN(C(=O)C(F)(F)C(F)(F)C(F)(F)F)CC3)c(F)cc2c1=O` [Compound 8], the entry is “no significant difference in toxicity”.
As for `O=C(O)c1cn(C2CC2)c2cc(N3CCNCC3)c(F)cc2c1=O` [Compound 12, Ciprofloxacin], the entry is “no significant difference in toxicity”.
